PubChem BioAssay AID686938 – Drosophila RNAi Screening Center | 2013

- Aim: 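Fly genes required for calcium entry once internal stores are emptied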 (primary screen)
- Cells: Drosophila S2R+ cells
- Knock-down reagent: long dsRNA against Drosophila genes, about 0.25 µg dsRNA per well, roughly 10,000 cells
- Time to read-out: 5 days of knock-down before the calcium assay
- Challenge: thapsigargin (SERCA pump blocker) to empty calcium stores; entry signal taken 4 min after adding it
- Read-out: 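Duplicate raw fluo-4 intensities per well from a plate reader, at rest and four minutes after thapsigargin emptied calcium stores; entry-to-rest ratio filled for only some wells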
- Direction: calcium entry signal: higher = stronger calcium signal after store depletion; resting calcium signal: higher = higher resting calcium signal
- Call rule: 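Called when the plate z-score of the entry-to-rest ratio, mean of duplicates, falls below −3; wells with low overall dye signal (Fmax z below −2) or more than five off-targets excluded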
- Calls: active = strongly reduced calcium entry; inactive = no strong reduction
The deposit covers about 23,000 reagents; below is a random part of those with a known target gene and a result. In the full data, 75 (0.33%) got an active call. 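Raw plate signals without normalisation; calls rest on plate z-scores that were not deposited; ratio present for only 364 wells.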 Not stated in the record: the dose of the treatment.

CG1146 [DRSC08189] showed calcium entry signal, replicate 1 (fluorescence units) = 4.53e7; calcium entry signal, replicate 2 (fluorescence units) = 4.07e7; resting calcium signal, replicate 1 (fluorescence units) = 2.00e7; resting calcium signal, replicate 2 (fluorescence units) = 1.97e7; inactive.
For m [DRSC20181] the deposit lists calcium entry signal, replicate 1 (fluorescence units) = 3.30e7; calcium entry signal, replicate 2 (fluorescence units) = 3.62e7; resting calcium signal, replicate 1 (fluorescence units) = 1.71e7; resting calcium signal, replicate 2 (fluorescence units) = 1.72e7; inactive.
Depletion of CG1233 [DRSC08269] resulted in: calcium entry signal, replicate 1 (fluorescence units) = 4.62e7; calcium entry signal, replicate 2 (fluorescence units) = 3.88e7; resting calcium signal, replicate 1 (fluorescence units) = 2.04e7; resting calcium signal, replicate 2 (fluorescence units) = 1.97e7; inactive.
After knock-down of Gas41 [DRSC03156], the record shows calcium entry signal, replicate 1 (fluorescence units) = 3.81e7; resting calcium signal, replicate 1 (fluorescence units) = 2.33e7; inactive.
CG32944 [DRSC12138] scored calcium entry signal, replicate 1 (fluorescence units) = 3.72e7; calcium entry signal, replicate 2 (fluorescence units) = 5.27e7; resting calcium signal, replicate 1 (fluorescence units) = 1.65e7; resting calcium signal, replicate 2 (fluorescence units) = 2.13e7; inactive.
Knock-down of CG32944 [DRSC12341] gave: calcium entry signal, replicate 1 (fluorescence units) = 3.13e7; calcium entry signal, replicate 2 (fluorescence units) = 5.94e7; resting calcium signal, replicate 1 (fluorescence units) = 1.45e7; resting calcium signal, replicate 2 (fluorescence units) = 2.16e7; inactive.
For CG3548 [DRSC04387], the values are calcium entry signal, replicate 1 (fluorescence units) = 3.83e7; resting calcium signal, replicate 1 (fluorescence units) = 1.97e7; inactive.
TwdlQ [DRSC14745] gave calcium entry signal, replicate 1 (fluorescence units) = 2.35e7; calcium entry signal, replicate 2 (fluorescence units) = 3.71e7; resting calcium signal, replicate 1 (fluorescence units) = 1.34e7; resting calcium signal, replicate 2 (fluorescence units) = 1.68e7; inactive.
TwdlQ [DRSC23107] showed calcium entry signal, replicate 1 (fluorescence units) = 4.10e7; calcium entry signal, replicate 2 (fluorescence units) = 4.46e7; resting calcium signal, replicate 1 (fluorescence units) = 1.89e7; resting calcium signal, replicate 2 (fluorescence units) = 1.84e7; inactive.
Against Grl58a [DRSC04145], the values are calcium entry signal, replicate 1 (fluorescence units) = 4.67e7; calcium entry signal, replicate 2 (fluorescence units) = 5.49e7; resting calcium signal, replicate 1 (fluorescence units) = 2.32e7; resting calcium signal, replicate 2 (fluorescence units) = 2.34e7; inactive.
After knock-down of Nop60B [DRSC04627], the screen gave calcium entry signal, replicate 1 (fluorescence units) = 2.81e7; resting calcium signal, replicate 1 (fluorescence units) = 1.60e7; inactive.
Knock-down of Cisd2 [DRSC14904] resulted in: calcium entry signal, replicate 1 (fluorescence units) = 3.63e7; calcium entry signal, replicate 2 (fluorescence units) = 4.85e7; resting calcium signal, replicate 1 (fluorescence units) = 1.75e7; resting calcium signal, replicate 2 (fluorescence units) = 2.00e7; inactive.
Knock-down of Obp50e [DRSC06434] gave: calcium entry signal, replicate 1 (fluorescence units) = 2.10e7; calcium entry signal, replicate 2 (fluorescence units) = 3.36e7; resting calcium signal, replicate 1 (fluorescence units) = 1.08e7; resting calcium signal, replicate 2 (fluorescence units) = 1.44e7; inactive.

Quoted from the entries so far, 4 entries:
TwdlQ [DRSC14745] — calcium entry signal, replicate 1 (fluorescence units): 2.35e7; calcium entry signal, replicate 2 (fluorescence units): 3.71e7; resting calcium signal, replicate 1 (fluorescence units): 1.34e7; resting calcium signal, replicate 2 (fluorescence units): 1.68e7; Outcome: inactive
TwdlQ [DRSC23107] — calcium entry signal, replicate 1 (fluorescence units): 4.10e7; calcium entry signal, replicate 2 (fluorescence units): 4.46e7; resting calcium signal, replicate 1 (fluorescence units): 1.89e7; resting calcium signal, replicate 2 (fluorescence units): 1.84e7; Outcome: inactive
Grl58a [DRSC04145] — calcium entry signal, replicate 1 (fluorescence units): 4.67e7; calcium entry signal, replicate 2 (fluorescence units): 5.49e7; resting calcium signal, replicate 1 (fluorescence units): 2.32e7; resting calcium signal, replicate 2 (fluorescence units): 2.34e7; Outcome: inactive
Nop60B [DRSC04627] — calcium entry signal, replicate 1 (fluorescence units): 2.81e7; resting calcium signal, replicate 1 (fluorescence units): 1.60e7; Outcome: inactive

Next entries follow:
After knock-down of sws [DRSC18843] the results were calcium entry signal, replicate 1 (fluorescence units) = 6.86e7; calcium entry signal, replicate 2 (fluorescence units) = 3.35e7; resting calcium signal, replicate 1 (fluorescence units) = 3.03e7; resting calcium signal, replicate 2 (fluorescence units) = 1.85e7; inactive.
Against CG12814 [DRSC14552], the values are calcium entry signal, replicate 1 (fluorescence units) = 3.73e7; calcium entry signal, replicate 2 (fluorescence units) = 5.14e7; resting calcium signal, replicate 1 (fluorescence units) = 1.54e7; resting calcium signal, replicate 2 (fluorescence units) = 2.14e7; inactive.
For CG12814 [DRSC14553], the values are calcium entry signal, replicate 1 (fluorescence units) = 3.36e7; calcium entry signal, replicate 2 (fluorescence units) = 3.21e7; resting calcium signal, replicate 1 (fluorescence units) = 1.63e7; resting calcium signal, replicate 2 (fluorescence units) = 1.66e7; inactive.
Silencing of Cep164 [DRSC20163] came out at: calcium entry signal, replicate 1 (fluorescence units) = 3.87e7; calcium entry signal, replicate 2 (fluorescence units) = 2.99e7; resting calcium signal, replicate 1 (fluorescence units) = 2.10e7; resting calcium signal, replicate 2 (fluorescence units) = 1.37e7; inactive.
Silencing of Urod [DRSC07569] resulted in: calcium entry signal, replicate 1 (fluorescence units) = 3.98e7; calcium entry signal, replicate 2 (fluorescence units) = 3.82e7; resting calcium signal, replicate 1 (fluorescence units) = 1.76e7; resting calcium signal, replicate 2 (fluorescence units) = 1.58e7; inactive.
Against CG30082 [DRSC22945], the values are calcium entry signal, replicate 1 (fluorescence units) = 3.42e7; calcium entry signal, replicate 2 (fluorescence units) = 4.28e7; resting calcium signal, replicate 1 (fluorescence units) = 1.66e7; resting calcium signal, replicate 2 (fluorescence units) = 1.83e7; inactive.
Depletion of Or45a [DRSC07487] resulted in: calcium entry signal, replicate 1 (fluorescence units) = 4.10e7; calcium entry signal, replicate 2 (fluorescence units) = 4.15e7; resting calcium signal, replicate 1 (fluorescence units) = 1.97e7; resting calcium signal, replicate 2 (fluorescence units) = 1.70e7; inactive.
Against l(3)neo43 [DRSC14988] the deposit lists calcium entry signal, replicate 1 (fluorescence units) = 3.47e7; calcium entry signal, replicate 2 (fluorescence units) = 5.98e7; resting calcium signal, replicate 1 (fluorescence units) = 1.79e7; resting calcium signal, replicate 2 (fluorescence units) = 6.05e7; inactive.
Knock-down of HisT [DRSC05051] came out at: calcium entry signal, replicate 1 (fluorescence units) = 2.22e7; calcium entry signal, replicate 2 (fluorescence units) = 3.40e7; resting calcium signal, replicate 1 (fluorescence units) = 1.22e7; resting calcium signal, replicate 2 (fluorescence units) = 1.47e7; inactive.
Against HisT [DRSC05052] the deposit lists calcium entry signal, replicate 1 (fluorescence units) = 2.66e7; calcium entry signal, replicate 2 (fluorescence units) = 3.90e7; resting calcium signal, replicate 1 (fluorescence units) = 1.36e7; resting calcium signal, replicate 2 (fluorescence units) = 1.69e7; inactive.
Against HisT [DRSC06405] the deposit lists calcium entry signal, replicate 1 (fluorescence units) = 1.72e7; calcium entry signal, replicate 2 (fluorescence units) = 1.74e7; resting calcium signal, replicate 1 (fluorescence units) = 8.58e6; resting calcium signal, replicate 2 (fluorescence units) = 9.22e6; inactive.
Silencing of CG1946 [DRSC06804] came out at: calcium entry signal, replicate 1 (fluorescence units) = 4.01e7; calcium entry signal, replicate 2 (fluorescence units) = 4.55e7; resting calcium signal, replicate 1 (fluorescence units) = 1.79e7; resting calcium signal, replicate 2 (fluorescence units) = 1.71e7; inactive.
Against LpR2 [DRSC13726], the entry reads calcium entry signal, replicate 1 (fluorescence units) = 3.37e7; calcium entry signal, replicate 2 (fluorescence units) = 3.82e7; resting calcium signal, replicate 1 (fluorescence units) = 1.59e7; resting calcium signal, replicate 2 (fluorescence units) = 1.99e7; inactive.
With knock-down of LpR2 [DRSC13728] the results were calcium entry signal, replicate 1 (fluorescence units) = 3.10e7; calcium entry signal, replicate 2 (fluorescence units) = 4.25e7; resting calcium signal, replicate 1 (fluorescence units) = 1.50e7; resting calcium signal, replicate 2 (fluorescence units) = 1.96e7; inactive.
LpR2 [DRSC15655] scored calcium entry signal, replicate 1 (fluorescence units) = 2.96e7; calcium entry signal, replicate 2 (fluorescence units) = 3.66e7; resting calcium signal, replicate 1 (fluorescence units) = 1.36e7; resting calcium signal, replicate 2 (fluorescence units) = 1.86e7; inactive.
For LpR2 [DRSC15658] the deposit lists calcium entry signal, replicate 1 (fluorescence units) = 4.12e7; calcium entry signal, replicate 2 (fluorescence units) = 4.91e7; resting calcium signal, replicate 1 (fluorescence units) = 1.95e7; resting calcium signal, replicate 2 (fluorescence units) = 2.13e7; inactive.
